Assay results from PMC11933671.

Target: SRPK1-GFP (serine/arginine-rich protein kinase with C-terminal GFP) (P. berghei)
Test: affinity purification with mass spectrometry; GFP-Trap_A beads on lysates of male gametocytes 6 min post-activation, cross-linked with 1% formaldehyde before lysis; lysis buffer 10 mM Tris-HCl pH 7.5, 150 mM NaCl, 0.5 mM EDTA, 0.5% Nonidet P-40 Substitute; 2 h at 4°C; on-bead trypsin digest, LC-MS/MS; three biological replicates; hits absent from the WT-GFP control

- binding: binds
B1: Calcium-dependent kinase 4 (enzyme, UniProt P62345 1-528)
chain: MGQEMSTQSDMQNENQKGNKRNLKGSQGKNGLKERSTSISKEIVKNSFNNSKLRPGMFIQNSNVVFNEQYKGIKILGKGSFGEVILSKDKHTGHEYAIKVISKKHVKRKTDKQSLLREVELLKMLDHINIMKLYEFFEDNNYYYLVSDVYSGGELFDEIISRKRFYEVDAARIIKQVLSGITYMHKNNVVHRDLKPENILLETKNKEDMIIKIIDFGLSTHFEYSKKMKDKIGTAYYIAPDVLHGTYDEKCDIWSCGVILYILLSGCPPFNGSNEYDILKKVETGKYTFDLPQFKKISDKAKDLIKKMLMYTSAVRISARDALEHEWIRLMTSKDNVNIDIPSLELSITNIKQFQSTQKLAQAALLYMGSKLTTIDETKELTKIFKKMDKNGDGQLDRNELIIGYKELLKLKGDDTTDLDNAAIEVEVDQILSSIDLDQNGYIEYSEFLTVAIDRKLLLSTERLEKAFKLFDKDGSGKISANELAQLFGLGDVSSDCWKTVLKEVDQNNDGEIDFKEFRDMLIKLCNY

No constants are given. Whether binding was seen depends on the method and setting. In cells and extracts the contact can be indirect. A yes stands for co-enrichment or nearness to the bait. Other partners may have been found.
